Data reported in doi:10.1101/098400 (bioRxiv, 2017).
No constants are given. Whether binding was seen depends on the method and setting. Some binding calls cover weakened binding; strength is not graded here.

Legend:
[1] = target: Rous Sarcoma Virus capsid protein (RSV CA), wild type (Rous Sarcoma Virus (strain Prague C)) (UniProt P03322); assay: SEC
[2] = target: Rous Sarcoma Virus capsid protein (RSV CA), wild type (Rous Sarcoma Virus (strain Prague C)) (UniProt P03322); assay: turbidimetric assay

B1: Rous Sarcoma Virus capsid protein (RSV CA), wild type (natural protein, Rous Sarcoma Virus (strain Prague C), UniProt P03322 240-476, looked up)
chain: PVVIKTEGPAWTPLEPKLITRLADTVRTKGLRSPITMAEVEALMSSPLLPHDVTNLMRVILGPAPYALWMDAWGVQLQTVIAAATRDPRHPANGQGRGERTNLNRLKGLADGMVGNPQGQAALLRPGELVAITASALQAFREVARLAEPAGPWADIMQGPSESFVDFANRLIKAVEGSDLPPSARAPVIIDCFRQKSQPDIQQLIRTAPSTLTTPGEIIKYVLDRQKTAPLTDQGIA
- binding [1]: no binding (condition: at 4 °C)
- binding [2]: binds weakly
